Measured values reported in publication PMC4980427, “Ctf4 Links DNA Replication with Sister Chromatid Cohesion Establishment by Recruiting the Chl1 Helicase to the Replisome” (Molecular Cell, 2016).
Residue numbers refer to the chain shown, from its start. Results are given in words; binding and its absence hold for the method and conditions named. In cells and extracts the contact can be indirect. Some binding calls cover weakened binding; strength is not graded here. For part of these data: Where a sequence is shown, tags or fusion partners need not be part of it. Each block holds one binder with its values, some of them ahead of it.

Experiments:
[1] = target: T1, Chl1-HA (S. cerevisiae), P22516; experiment: co-IP; extracts of cells synchronized and arrested in early S phase by HU; Chl1-HA immunoprecipitated, Ctf4 detected by immunoblotting; conditions: remark: other sources report otherwise
T1 chain: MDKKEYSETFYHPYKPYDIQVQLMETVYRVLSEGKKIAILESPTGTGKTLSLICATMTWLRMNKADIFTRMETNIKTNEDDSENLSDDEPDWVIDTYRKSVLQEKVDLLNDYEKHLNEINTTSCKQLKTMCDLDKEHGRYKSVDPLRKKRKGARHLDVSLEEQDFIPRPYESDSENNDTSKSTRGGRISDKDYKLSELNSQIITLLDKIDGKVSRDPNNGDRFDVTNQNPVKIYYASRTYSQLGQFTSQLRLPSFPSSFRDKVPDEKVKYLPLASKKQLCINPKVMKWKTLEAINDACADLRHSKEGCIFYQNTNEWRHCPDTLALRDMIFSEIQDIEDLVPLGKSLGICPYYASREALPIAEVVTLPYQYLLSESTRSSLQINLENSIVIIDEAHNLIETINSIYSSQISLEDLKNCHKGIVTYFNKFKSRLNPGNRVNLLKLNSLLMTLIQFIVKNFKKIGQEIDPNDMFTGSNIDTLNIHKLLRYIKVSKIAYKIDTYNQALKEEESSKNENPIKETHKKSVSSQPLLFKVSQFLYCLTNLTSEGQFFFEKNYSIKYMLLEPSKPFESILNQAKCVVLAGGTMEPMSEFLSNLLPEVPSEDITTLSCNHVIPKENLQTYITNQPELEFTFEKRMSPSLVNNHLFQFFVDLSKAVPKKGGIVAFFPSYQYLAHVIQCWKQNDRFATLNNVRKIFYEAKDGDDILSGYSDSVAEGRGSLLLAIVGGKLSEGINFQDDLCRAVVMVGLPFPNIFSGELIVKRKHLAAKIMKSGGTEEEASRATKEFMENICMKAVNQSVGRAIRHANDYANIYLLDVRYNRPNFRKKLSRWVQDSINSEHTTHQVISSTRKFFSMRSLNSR

[2] = target: T2, Chl1^K48R (S. cerevisiae) (UniProt P22516); experiment: as above
T2 sequence: T1 chain with K48R

[3] = target: T3, Ctf4 (S. cerevisiae (endogenous in budding yeast cells)), Q01454; experiment: co-IP; extracts of a culture passing synchronously through the cell cycle after α factor block and release; time points in S phase; immunoblotting; conditions: remark: other sources report otherwise
T3 chain: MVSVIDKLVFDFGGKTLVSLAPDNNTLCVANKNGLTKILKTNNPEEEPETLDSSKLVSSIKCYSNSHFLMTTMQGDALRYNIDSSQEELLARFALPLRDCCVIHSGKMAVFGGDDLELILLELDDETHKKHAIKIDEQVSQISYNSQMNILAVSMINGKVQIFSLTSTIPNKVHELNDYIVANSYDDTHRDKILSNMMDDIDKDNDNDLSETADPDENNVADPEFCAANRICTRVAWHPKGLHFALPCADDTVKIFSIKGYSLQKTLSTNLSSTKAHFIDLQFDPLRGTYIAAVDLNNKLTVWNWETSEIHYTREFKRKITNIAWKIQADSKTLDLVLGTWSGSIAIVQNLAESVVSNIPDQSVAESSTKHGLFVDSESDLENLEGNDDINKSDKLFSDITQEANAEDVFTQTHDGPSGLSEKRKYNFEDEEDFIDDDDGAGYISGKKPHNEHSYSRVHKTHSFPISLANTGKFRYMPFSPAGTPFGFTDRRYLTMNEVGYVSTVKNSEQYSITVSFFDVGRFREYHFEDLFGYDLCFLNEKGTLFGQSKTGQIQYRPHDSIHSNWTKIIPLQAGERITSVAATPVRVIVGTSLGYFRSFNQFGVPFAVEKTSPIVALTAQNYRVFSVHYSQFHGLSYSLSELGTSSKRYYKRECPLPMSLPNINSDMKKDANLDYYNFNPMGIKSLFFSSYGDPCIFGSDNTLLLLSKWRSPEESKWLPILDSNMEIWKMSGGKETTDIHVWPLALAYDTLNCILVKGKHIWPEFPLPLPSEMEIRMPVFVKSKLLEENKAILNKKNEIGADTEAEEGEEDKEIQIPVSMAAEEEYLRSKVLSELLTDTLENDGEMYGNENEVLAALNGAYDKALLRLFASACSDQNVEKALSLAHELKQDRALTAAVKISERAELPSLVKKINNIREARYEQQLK

[4] = target: T4, Ctf4 (S. cerevisiae (endogenous in budding yeast cells)) (UniProt Q01454); experiment: co-IP; as a1, time points before and after S phase
T4 sequence: T3 chain

[5] = target: T4, Ctf4 (S. cerevisiae (endogenous in budding yeast cells)); experiment: condition: only cells after most DNA replication was complete; co-IP; as a4, time points after most DNA replication was complete
[6] = target: T3, Ctf4 (S. cerevisiae (endogenous in …)); experiment: co-IP; extracts at intervals from a culture progressing synchronously through the cell cycle; Ctf4 immunoprecipitated; Psf2, Pol1 and Chl1 detected by immunoblotting; conditions: remark: other sources report otherwise

binding [2]: binds
B2: Ctf4 (protein, UniProt Q01454 1-927)
chain: T3 chain

binding [3]: binds
B3: Pk epitope-tagged Chl1, P22516 1-861 (enzyme)
chain: T1 chain

binding [6]: binds
B6: Chl1, P22516 1-861 (enzyme)
chain: T1 chain

More lines, now with the values behind:

B1: Ctf4, Q01454 1-927 (protein)
chain: T3 chain
binding [1]: binds

B4: Pk epitope-tagged Chl1 (enzyme, UniProt P22516 1-861)
chain: T1 chain
binding [4]: no binding (condition: cells before or after S phase)

B5: Chl1 (enzyme, UniProt P22516 1-861)
chain: T1 chain
binding [5]: no binding
